Read-outs that look alike come from different tables or passages of the source.
Tested on: plasma metabolites
Format: in vivo, rat
Description: Male and female SD rats were divided into experimental and control groups. Each group contained 10 male and 10 female rats. […] Blood was collected from orbital vein into sodium heparin-coated centrifugal tubes pre-chilled at 4 ℃, at 30 min, 2 h, and 12 h post-administration respectively. Plasma was separated by gentle inversion, immediately quenched in liquid nitrogen, and centrifuged at 1500 g for 10 min at 4 ℃. The prepared plasma was stored at − 80 ℃ until LC-MS/MS analysis.
The stored plasma samples were thawed at 4 °C, and 100 µL of each sample was transferred to a centrifuge tube. Proteins were precipitated using 1 mL of methanol/acetonitrile/water solution (2:2:1, v: v:v) at 4 °C. After vortex mixing, the sample mixture was sonicated for 30 min (ice was used to maintain the low-temperature conditions). The sonicated mixture was allowed to stand for 10 min at […], then centrifuged at 14,000 g for 20 min at 4 °C. The resulting supernatant was collected and dried under vacuum. For instrumental analysis, the dried supernatant was reconstituted in 100 µL of aqueous acetonitrile solution, vortexed, then centrifuged at 14,000 g for 15 min at 4 °C. To ensure instrument stability and data reliability, quality control samples were prepared and analyzed using random sampling.
Chromatographic conditions: separation was performed in a Waters Acquity UPLC BEH Amide column (1.7 μm, 2.1 × 100 mm). The column temperature was 25 ℃ and flow rate was 0.5 mL/min. The injection volume was 2 µL, with the mobile phases consisting of A: water + 25 mM ammonium acetate + 25 mM ammonia, and B: acetonitrile. The gradient elution program was as follows: 0–0.5 min, 95% B; 0.5–7 min, 95%−65% B; 7–8 min, 65%−40% B; 8–9 min, 40% B; 9–9.1 min, 40%−95%B; 9.1–12 min, 95%B.
MS conditions: Detection was carried out using electrospray ionization in both positive and negative ion modes. The following parameters were used: spray voltage, ± 5500 V; ionization temperature, 600 ℃; nebulization air pressure, 60 psi; auxiliary air pressure, 60 psi; air curtain air pressure, 30 psi; time-of-flight MS scanning range (m/z), 60–1000 Da; product ion scanning range, 25–1000 Da. The secondary mass spectra were acquired using information-dependent acquisition in high-resolution mode. The cone bore voltage was ± 60 V (positive and negative modes) and collision energy was 35 ± 15 eV.
Orthogonal partial least squares-discriminant analysis (OPLS-DA) were computed for control female and male rats. […] Differential metabolites were identified using stringent criteria: variable importance in projection (VIP) scores > 1 and statistically significant from t-test.
OPLS-DA scores were calculated for the control group and experimental male rats. […] Differential metabolites were identified using stringent selection criteria: VIP scores > 1.0 and P < 0.05, as derived from the OPLS-DA model.
We performed pairwise comparisons of metabolites between male and female rats in the experimental and control groups. […] We performed KEGG enrichment analysis on metabolites that differed between male and female rats in the experimental group (Fig. 6G-I).

[1] = test group male (TM3) vs female (TF3) rats at 30 minutes
[2] = test group male (TM5) vs female (TF5) rats at 2 hours
[3] = test male vs test female rats (TM5 vs TF5), 2 hour, after excluding blank-group and before/after-administration sex differences
[4] = test male vs test female rats (TM8 vs TF8), 12 hour, after excluding blank-group and before/after-administration sex differences
[5] = test male vs test female rats (TM8 vs TF8), 12 hour after strychnine

| SMILES | Fold change (rat, in vivo) | Fold change [1] | Fold change [2] | Fold change [3] | Fold change [4] | Fold change [5] |
| --- | --- | --- | --- | --- | --- | --- |
| CCCCCCCC/C=C\CCCCCCCC(=O)O[C@H](COC(=O)CCCCCCCCCCCCCCCCC)COP(=O)([O-])OCC[N+](C)(C)C | 0.3801 | 0.4159 | 0.3884 | 0.3884 | 0.3801 | – |
| CCCCCCCC/C=C\CCCCCCCC(=O)OC[C@H](COP(=O)([O-])OCC[N+](C)(C)C)OC(=O)CCCCCCC/C=C\CCCCCCCC | – | 1.495 | – | – | – | – |
| C[N+](C)(C)CCCC(=O)O | – | 1.412 | 1.61 | 1.61 | – | – |
| CCCCC/C=C\C/C=C\CCCCCCCC(=O)OCC(O)CO (racemic) [MG(18:2(9Z,12Z)/0:0/0:0)[rac]] | 0.05732 | 3.095 | 0.449 | 0.449 | 0.05732 | – |
| CCCCCCCCCCCCCC(=O)OC[C@@H](O)COP(=O)([O-])OCC[N+](C)(C)C [1-Myristoyl-sn-glycero-3-phosphocholine] | – | 1.498 | 1.895 | – | – | 2.284 |
| CCCCCCCC/C=C\CCCCCCCCOC[C@H](COP(=O)([O-])OCC[N+](C)(C)C)OC(C)=O [1-O-(cis-9-Octadecenyl)-2-O-acetyl-sn-glycero-3-phosphocholine] | – | 2.309 | – | – | – | 0.463 |
| CCCCCCCC/C=C\CCCCCCCC(=O)OC[C@@H](O)COP(=O)([O-])OCC[N+](C)(C)C [1-Oleoyl-sn-glycero-3-phosphocholine] | – | 1.769 | 1.341 | 1.341 | – | – |
| CCCCCCCCCCCCCCCC(=O)OC[C@@H](O)COP(=O)([O-])OCC[N+](C)(C)C [1-Palmitoyl-sn-glycero-3-phosphocholine] | – | 1.242 | 1.271 | 1.271 | – | – |
| CCCCCCCCCCCCCCCC(=O)OCC(O)CO (stereo not shown) [1-Palmitoylglycerol] | – | 2.851 | 0.568 | – | – | 0.2262 |
| CCCCCCCCCCCCCCCCCC(=O)OC[C@@H](O)COP(=O)([O-])OCC[N+](C)(C)C [1-Stearoyl-sn-glycerol 3-phosphocholine] | – | – | 0.3627 | – | – | – |
| Cc1c[nH]c(=O)nc1N [5-Methylcytosine] | – | 0.4844 | 0.7224 | 0.7224 | – | – |
| CC(C)CCC[C@@H](C)[C@H]1CC[C@H]2[C@@H]3C(=O)C=C4C[C@@H](O)CC[C@]4(C)[C@H]3CC[C@]12C [7-Oxocholesterol] | – | 1.996 | – | – | – | – |
| C[C@]12CCC(=O)C=C1CC[C@@H]1[C@@H]2CC[C@]2(C)C(=O)CC[C@@H]12 [Androstendione] | – | 0.5554 | 0.4044 | 0.4044 | – | – |
| C=C1CC[C@H](O)C/C1=C/C=C1\CCC[C@]2(C)[C@@H]([C@H](C)CCCC(C)C)CC[C@@H]12 [Cholecalciferol (Vitamin D3)] | – | 0.4233 | – | – | – | – |
| CN1CC(=O)NC1=N [Creatinine] | – | – | 0.6023 | – | – | – |
| NC1CCCCC1 [Cyclohexylamine] | – | 1.868 | – | – | – | – |
| Nc1cc[nH]c(=O)n1 [Cytosine] | – | – | – | – | – | 0.7061 |
| O=C(O)[C@H]1CCCN1 [D-Proline] | – | – | – | – | – | 0.5579 |
| Nc1ccn([C@H]2C[C@H](O)[C@@H](CO)O2)c(=O)n1 [Deoxycytidine] | – | – | 0.7601 | – | 0.6664 | 0.6664 |
| O=C(O)[C@@H]1CCCCN1 [L-Pipecolic acid] | – | – | 0.524 | – | – | 0.4481 |
| CC(C)CCC[C@@H](C)[C@H]1CC[C@H]2C3=CC[C@H]4C[C@@H](O)CC[C@]4(C)[C@H]3CC[C@]12C [Lathosterol] | – | 0.4073 | – | – | – | 3.957 |
| CCCCC/C=C\C/C=C\CCCCCCCC(=O)O [Linoleic acid] | – | – | – | – | 0.11 | 0.11 |
| CCCCCCCCCCCCC/C=C/[C@@H](O)[C@H](CO)NC(=O)CCCCCCCCCCCCCCC [N-Palmitoylsphingosine] | – | – | – | – | – | 2.061 |
| COc1ccc(-c2cc(=O)c3c(OC)c(OC)c(OC)c(OC)c3o2)cc1OC [Nobiletin] | – | – | 0.09874 | – | – | – |
| CCCCCCCCCCCCCCCC(=O)OC[C@H](COP(=O)([O-])OCC[N+](C)(C)C)OC(=O)CCCCCCCCCCCCCCC [PC(16:0/16:0)] | – | 2.09 | 1.754 | 1.754 | – | – |
| COc1ccc(-c2cc(=O)c3c(OC)c(OC)c(OC)c(OC)c3o2)cc1 [Tangeritin] | – | – | 0.1259 | – | – | – |
| CCCCCCCCCCCCCCCCSC[C@H](COP(=O)(O)OCC[N+](C)(C)C)NC(=O)CCCCCCCCCCCCCCC [Thioetheramide-PC] | – | 1.621 | 1.595 | 1.595 | – | – |
| Cc1c[nH]c(=O)[nH]c1=O [Thymine] | – | – | 0.4499 | 0.4499 | 0.3532 | 0.3532 |
| C[n+]1cccc(C(=O)[O-])c1 [Trigonelline] | – | 1.929 | 1.556 | – | – | – |
| NCCc1ccc(O)cc1 [Tyramine] | – | – | – | – | 0.6121 | 0.6121 |
